The supplement of paper PMC10849652
Some of the results follow.

By UniProt entry, the sequences of proteins in these tests, tags left out. Where a name states a change or a piece, a line headed by the entry shows the natural chain unless it says otherwise.
UniProt O00159, whole entry, looked up: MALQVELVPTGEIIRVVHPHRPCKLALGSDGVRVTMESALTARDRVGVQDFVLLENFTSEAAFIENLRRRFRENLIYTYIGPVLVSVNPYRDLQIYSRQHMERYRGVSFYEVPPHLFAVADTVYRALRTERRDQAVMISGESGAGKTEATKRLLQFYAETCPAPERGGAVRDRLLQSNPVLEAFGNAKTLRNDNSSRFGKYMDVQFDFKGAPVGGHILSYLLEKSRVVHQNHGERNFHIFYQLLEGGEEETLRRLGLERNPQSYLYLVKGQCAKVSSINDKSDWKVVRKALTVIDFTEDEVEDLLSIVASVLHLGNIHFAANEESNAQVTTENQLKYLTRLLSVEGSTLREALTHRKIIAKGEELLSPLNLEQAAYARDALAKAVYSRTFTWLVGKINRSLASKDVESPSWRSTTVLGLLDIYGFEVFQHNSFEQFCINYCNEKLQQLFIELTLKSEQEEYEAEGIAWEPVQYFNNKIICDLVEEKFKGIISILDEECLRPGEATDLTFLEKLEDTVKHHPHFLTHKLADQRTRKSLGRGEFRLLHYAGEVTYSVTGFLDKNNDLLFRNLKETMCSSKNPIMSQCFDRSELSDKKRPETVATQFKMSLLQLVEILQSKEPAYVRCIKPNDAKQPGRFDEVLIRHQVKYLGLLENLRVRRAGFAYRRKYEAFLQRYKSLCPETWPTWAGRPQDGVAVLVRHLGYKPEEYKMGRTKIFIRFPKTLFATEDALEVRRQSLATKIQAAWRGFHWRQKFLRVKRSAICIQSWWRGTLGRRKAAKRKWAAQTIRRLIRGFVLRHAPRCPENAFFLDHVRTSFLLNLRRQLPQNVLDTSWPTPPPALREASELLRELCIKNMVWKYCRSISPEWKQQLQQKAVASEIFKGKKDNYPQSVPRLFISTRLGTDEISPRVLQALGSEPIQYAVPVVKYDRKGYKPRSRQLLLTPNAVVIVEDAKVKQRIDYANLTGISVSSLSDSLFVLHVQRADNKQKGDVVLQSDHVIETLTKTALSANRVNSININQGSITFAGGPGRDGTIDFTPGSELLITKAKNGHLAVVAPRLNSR
UniProt P00846: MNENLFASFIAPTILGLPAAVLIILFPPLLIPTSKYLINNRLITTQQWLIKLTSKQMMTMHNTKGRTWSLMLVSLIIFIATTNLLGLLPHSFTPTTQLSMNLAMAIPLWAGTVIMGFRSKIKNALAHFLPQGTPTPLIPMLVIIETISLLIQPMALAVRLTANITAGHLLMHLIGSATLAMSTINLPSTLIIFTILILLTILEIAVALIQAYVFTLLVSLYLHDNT
UniProt P42285: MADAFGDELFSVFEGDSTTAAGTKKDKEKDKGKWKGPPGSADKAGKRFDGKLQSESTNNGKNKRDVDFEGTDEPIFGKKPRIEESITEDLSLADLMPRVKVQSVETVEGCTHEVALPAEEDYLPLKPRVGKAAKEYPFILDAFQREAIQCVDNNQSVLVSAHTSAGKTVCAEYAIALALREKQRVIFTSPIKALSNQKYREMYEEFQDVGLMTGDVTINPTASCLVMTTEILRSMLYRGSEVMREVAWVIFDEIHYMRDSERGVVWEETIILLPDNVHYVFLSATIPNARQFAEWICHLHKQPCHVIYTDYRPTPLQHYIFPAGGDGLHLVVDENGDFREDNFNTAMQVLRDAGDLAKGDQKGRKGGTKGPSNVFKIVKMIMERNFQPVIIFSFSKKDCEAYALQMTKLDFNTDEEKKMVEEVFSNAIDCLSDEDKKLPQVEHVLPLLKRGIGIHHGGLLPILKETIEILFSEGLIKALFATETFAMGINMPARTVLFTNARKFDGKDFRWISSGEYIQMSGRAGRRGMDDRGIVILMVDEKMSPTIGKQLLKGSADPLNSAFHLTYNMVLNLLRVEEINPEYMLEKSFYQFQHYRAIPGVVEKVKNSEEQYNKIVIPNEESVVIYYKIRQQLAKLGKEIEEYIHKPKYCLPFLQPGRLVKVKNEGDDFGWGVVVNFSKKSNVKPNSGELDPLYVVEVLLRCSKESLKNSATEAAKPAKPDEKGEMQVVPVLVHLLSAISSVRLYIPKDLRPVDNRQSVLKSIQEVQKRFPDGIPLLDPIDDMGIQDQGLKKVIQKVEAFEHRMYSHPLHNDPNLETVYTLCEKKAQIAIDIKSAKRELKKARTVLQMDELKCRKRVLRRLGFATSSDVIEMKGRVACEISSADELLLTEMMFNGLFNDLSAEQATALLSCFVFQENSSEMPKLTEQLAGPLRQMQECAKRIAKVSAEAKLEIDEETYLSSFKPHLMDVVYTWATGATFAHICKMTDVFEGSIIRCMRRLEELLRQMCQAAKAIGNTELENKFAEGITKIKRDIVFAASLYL
UniProt Q9UBK8: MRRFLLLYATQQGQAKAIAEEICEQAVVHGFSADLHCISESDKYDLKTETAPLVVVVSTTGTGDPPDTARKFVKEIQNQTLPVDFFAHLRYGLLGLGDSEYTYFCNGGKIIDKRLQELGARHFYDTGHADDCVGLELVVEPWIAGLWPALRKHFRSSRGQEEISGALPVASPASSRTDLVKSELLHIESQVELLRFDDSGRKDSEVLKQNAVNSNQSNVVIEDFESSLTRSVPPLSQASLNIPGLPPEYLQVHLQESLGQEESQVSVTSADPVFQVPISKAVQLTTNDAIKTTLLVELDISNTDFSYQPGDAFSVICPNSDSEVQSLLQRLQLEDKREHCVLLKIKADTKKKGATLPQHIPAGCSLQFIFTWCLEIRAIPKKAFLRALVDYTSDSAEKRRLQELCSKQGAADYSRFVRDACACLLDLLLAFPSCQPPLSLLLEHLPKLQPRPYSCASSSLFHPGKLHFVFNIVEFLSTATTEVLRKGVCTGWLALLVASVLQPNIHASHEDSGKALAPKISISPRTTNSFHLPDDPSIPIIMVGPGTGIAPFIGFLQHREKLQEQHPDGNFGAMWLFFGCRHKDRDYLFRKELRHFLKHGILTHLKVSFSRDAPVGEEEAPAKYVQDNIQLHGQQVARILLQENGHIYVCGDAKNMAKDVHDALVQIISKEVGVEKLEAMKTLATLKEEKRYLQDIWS
UniProt P35579, whole entry, looked up: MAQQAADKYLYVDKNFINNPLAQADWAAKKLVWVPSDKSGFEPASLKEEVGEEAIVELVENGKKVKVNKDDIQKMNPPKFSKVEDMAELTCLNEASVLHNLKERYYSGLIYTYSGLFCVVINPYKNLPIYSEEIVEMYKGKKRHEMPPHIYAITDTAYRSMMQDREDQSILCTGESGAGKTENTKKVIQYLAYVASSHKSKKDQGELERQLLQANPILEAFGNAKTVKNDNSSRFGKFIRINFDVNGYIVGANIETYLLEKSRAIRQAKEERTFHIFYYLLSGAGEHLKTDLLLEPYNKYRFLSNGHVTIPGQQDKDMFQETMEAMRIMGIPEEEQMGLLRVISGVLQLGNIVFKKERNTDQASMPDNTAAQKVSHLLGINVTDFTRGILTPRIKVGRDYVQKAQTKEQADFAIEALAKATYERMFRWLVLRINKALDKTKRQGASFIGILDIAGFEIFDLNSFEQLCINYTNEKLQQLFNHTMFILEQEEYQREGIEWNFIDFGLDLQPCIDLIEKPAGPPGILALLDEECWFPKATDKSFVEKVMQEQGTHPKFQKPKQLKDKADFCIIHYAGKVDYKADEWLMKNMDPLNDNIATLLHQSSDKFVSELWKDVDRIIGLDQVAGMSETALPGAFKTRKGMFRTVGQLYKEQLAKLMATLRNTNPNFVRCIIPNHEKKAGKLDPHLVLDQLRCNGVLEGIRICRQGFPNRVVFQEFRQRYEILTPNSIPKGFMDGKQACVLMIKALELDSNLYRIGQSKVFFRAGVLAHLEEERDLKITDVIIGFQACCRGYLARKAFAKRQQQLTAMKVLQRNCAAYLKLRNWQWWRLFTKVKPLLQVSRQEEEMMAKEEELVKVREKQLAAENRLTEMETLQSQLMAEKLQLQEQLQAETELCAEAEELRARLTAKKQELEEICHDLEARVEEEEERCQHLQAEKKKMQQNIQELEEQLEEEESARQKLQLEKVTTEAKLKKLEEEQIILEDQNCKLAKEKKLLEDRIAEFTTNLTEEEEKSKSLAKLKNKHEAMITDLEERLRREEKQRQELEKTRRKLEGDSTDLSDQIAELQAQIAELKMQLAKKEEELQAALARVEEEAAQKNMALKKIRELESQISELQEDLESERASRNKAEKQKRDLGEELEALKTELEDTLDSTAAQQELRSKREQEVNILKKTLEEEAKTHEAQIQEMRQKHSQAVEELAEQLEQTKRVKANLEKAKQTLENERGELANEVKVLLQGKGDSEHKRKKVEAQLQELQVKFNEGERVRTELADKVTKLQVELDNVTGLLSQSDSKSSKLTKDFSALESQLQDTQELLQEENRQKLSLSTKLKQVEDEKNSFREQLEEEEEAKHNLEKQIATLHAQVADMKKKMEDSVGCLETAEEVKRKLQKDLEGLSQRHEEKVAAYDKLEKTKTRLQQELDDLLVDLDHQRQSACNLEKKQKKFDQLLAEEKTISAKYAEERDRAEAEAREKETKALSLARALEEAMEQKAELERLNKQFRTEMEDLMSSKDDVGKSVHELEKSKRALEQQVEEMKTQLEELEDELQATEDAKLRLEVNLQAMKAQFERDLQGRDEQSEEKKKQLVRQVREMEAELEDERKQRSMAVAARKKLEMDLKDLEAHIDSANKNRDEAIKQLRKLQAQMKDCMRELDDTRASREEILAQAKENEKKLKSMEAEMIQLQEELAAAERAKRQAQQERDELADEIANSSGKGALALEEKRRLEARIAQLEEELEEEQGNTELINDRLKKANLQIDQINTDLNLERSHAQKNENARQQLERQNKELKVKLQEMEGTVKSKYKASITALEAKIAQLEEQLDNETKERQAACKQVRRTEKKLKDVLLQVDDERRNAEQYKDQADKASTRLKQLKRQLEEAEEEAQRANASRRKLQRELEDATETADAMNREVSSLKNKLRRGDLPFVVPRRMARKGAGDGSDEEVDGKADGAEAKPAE
UniProt Q99707: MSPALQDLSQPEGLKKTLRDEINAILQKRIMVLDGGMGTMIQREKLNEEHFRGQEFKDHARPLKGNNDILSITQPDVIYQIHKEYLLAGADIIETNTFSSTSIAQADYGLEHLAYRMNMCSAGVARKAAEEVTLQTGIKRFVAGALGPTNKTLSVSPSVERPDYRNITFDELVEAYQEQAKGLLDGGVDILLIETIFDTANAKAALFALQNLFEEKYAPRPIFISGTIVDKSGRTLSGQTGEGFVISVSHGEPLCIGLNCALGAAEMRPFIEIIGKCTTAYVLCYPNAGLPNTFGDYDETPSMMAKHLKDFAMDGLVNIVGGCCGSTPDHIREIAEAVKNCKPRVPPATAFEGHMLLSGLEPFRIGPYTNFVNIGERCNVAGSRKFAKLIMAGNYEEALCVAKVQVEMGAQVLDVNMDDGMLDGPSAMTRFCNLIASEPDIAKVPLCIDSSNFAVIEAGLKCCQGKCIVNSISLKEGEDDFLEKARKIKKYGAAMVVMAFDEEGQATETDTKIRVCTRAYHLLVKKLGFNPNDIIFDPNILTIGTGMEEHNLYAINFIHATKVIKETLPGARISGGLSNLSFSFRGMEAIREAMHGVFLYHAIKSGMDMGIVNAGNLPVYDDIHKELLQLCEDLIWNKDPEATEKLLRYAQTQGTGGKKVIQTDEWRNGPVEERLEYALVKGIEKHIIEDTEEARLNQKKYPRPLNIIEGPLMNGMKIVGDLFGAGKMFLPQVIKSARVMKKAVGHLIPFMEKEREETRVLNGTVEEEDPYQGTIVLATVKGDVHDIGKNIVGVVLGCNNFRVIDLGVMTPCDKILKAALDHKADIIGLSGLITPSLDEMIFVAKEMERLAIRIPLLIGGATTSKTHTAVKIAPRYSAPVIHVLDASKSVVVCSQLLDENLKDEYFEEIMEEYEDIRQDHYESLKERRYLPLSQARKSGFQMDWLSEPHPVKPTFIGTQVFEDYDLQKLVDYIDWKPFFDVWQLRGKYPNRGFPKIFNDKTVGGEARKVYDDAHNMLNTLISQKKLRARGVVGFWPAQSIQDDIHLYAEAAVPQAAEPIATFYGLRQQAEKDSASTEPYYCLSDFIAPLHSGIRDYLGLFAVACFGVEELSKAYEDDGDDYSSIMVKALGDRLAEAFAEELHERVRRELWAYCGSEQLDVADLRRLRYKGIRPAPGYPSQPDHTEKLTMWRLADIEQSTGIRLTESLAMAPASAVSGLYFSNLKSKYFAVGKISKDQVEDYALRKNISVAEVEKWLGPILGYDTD
UniProt Q15800: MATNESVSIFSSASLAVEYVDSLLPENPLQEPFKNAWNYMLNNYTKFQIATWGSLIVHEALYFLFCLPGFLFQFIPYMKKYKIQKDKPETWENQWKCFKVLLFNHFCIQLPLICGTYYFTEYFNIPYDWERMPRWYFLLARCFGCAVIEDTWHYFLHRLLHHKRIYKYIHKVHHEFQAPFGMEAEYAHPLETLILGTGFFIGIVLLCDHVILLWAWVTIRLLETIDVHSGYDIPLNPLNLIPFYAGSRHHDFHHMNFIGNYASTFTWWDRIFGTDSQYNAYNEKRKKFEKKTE

Legend:
Assay in all cases: log2 fold change, soluble protein after heating vs DMSO (PISA); higher = thermal stabilisation; K562 cells, 10 uM, 30 min; active = over 0.2 and 3.5 SD of the protein, either way, in both replicates (recomputed)
[1] = compound: NC(=O)Nc1cc(-c2cccc(F)c2)sc1C(=O)N[C@H]1CCCNC1
Method in brief: (§1)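 Soluble protein was defined as the supernatant after 21,000xg for 90 min. It came from K562 cells at 2×10^6 cells/mL given 10 μM compound for 30 min, heated in aliquots for 3 min across 48°C-58°C, pooled, and extracted in PBS with 0.5% NP-40 at 4°C, and was quantified by TMTpro 16plex LC-MS/MS with equalised channel sums. Thermal stability against control samples, from duplicates, is reported as log2 fold change.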

[2] = compound: NC(=O)c1cnc(N[C@@H]2CCCC[C@@H]2N)nc1Nc1cccc(-n2nccn2)c1
Method in brief: as §1

[3] = compound: NC1(c2ccc(-c3nc4ccn5c(=O)[nH]nc5c4cc3-c3ccccc3)cc2)CCC1
Method in brief: as §1

[4] = compound: NCC(=O)Nc1ccc(-n2nc(C(F)(F)F)cc2-c2ccc3c(ccc4ccccc43)c2)cc1
Method in brief: as §1

entinostat = compound: Nc1ccccc1NC(=O)c1ccc(CNC(=O)OCc2cccnc2)cc1 [entinostat]
Method in brief: as §1

vorinostat = compound: O=C(CCCCCCC(=O)Nc1ccccc1)NO [vorinostat]
Method in brief: as §1

citarinostat = compound: O=C(CCCCCCNC(=O)c1cnc(N(c2ccccc2)c2ccccc2Cl)nc1)NO [citarinostat]
Method in brief: as §1

silmitasertib = compound: O=C(O)c1ccc2c(c1)nc(Nc1cccc(Cl)c1)c1ccncc12 [silmitasertib]
Method in brief: as §1

[5] = compound: O=C1NC(=O)C(c2cnc3ccccn23)=C1c1cn2c3c(cc(F)cc13)CN(C(=O)N1CCCCC1)CC2
Method in brief: as §1

[6] = compound: c1cc(OCCN2CCCCC2)cc(-c2n[nH]c3ccc(-c4nnc[nH]4)cc23)c1
Method in brief: as §1

Measured: log2 fold change

MYO1C (UniProt O00159)
inactive: [1] 0 | [2] -0.002 | [3] 0.171 | [4] -0.116 | entinostat -0.028 | vorinostat 0.04 | citarinostat -0.044 | silmitasertib 0.195 | [5] 0.053 | [6] -0.087

MYH11 isoform 2 (UniProt P35749)
inactive: [1] 0.056 | [2] 0.018 | [3] -0.017 | [4] 0.046 | entinostat 0.015 | vorinostat 0.121 | citarinostat 0.027 | silmitasertib -0.003 | [5] -0.009 | [6] -0.034

MTFP1 (UniProt Q9UDX5)
inactive: [1] -0.062 | [2] -0.014 | [3] 0.011 | [4] -0.076 | entinostat 0.008 | vorinostat -0.095 | citarinostat -0.017 | silmitasertib 0.014 | [5] -0.032 | [6] -0.108

MT-ATP6 (UniProt P00846)
inactive: [1] -0.003 | [2] -0.007 | [3] 0.197 | [4] 0.081 | entinostat -0.018 | vorinostat -0.007 | citarinostat 0.097 | silmitasertib -0.005 | [5] 0.037 | [6] -0.04

MRPS31 (UniProt Q92665)
inactive: [1] -0.001 | [2] 0.03 | [3] -0.05 | [4] 0 | entinostat -0.011 | vorinostat -0.039 | citarinostat 0.008 | silmitasertib -0.012 | [5] -0.036 | [6] -0.083

MTCH2 (UniProt Q9Y6C9)
inactive: [1] -0.026 | [2] -0.076 | [3] -0.016 | [4] -0.065 | entinostat -0.026 | vorinostat -0.012 | citarinostat 0.018 | silmitasertib 0.012 | [5] -0.082 | [6] -0.021

MTREX (UniProt P42285)
inactive: [1] 0.086 | [2] -0.02 | [3] 0.03 | [4] -0.038 | entinostat -0.001 | vorinostat 0.007 | citarinostat 0.017 | silmitasertib -0.016 | [5] -0.052 | [6] -0.012

MTPN (UniProt P58546)
inactive: [1] -0.005 | [2] -0.004 | [3] -0.014 | [4] -0.03 | entinostat 0.129 | vorinostat -0.12 | citarinostat -0.097 | silmitasertib -0.016 | [5] -0.148 | [6] 0.057

MTRR isoform 1 (UniProt Q9UBK8)
inactive: [1] -0.015 | [2] -0.043 | [3] -0.011 | [4] -0.021 | entinostat -0.004 | vorinostat -0.031 | citarinostat -0.012 | silmitasertib 0.114 | [5] -0.084 | [6] -0.049

MRPS5 (UniProt P82675)
inactive: [1] 0.009 | [2] 0.034 | [3] -0.057 | [4] 0.013 | entinostat 0 | vorinostat 0.125 | citarinostat 0.023 | silmitasertib -0.043 | [5] -0.039 | [6] -0.018

Quoted from above (2 entries):
MTCH2 (UniProt Q9Y6C9)
inactive: [1] -0.026 | [2] -0.076 | [3] -0.016 | [4] -0.065 | entinostat -0.026 | vorinostat -0.012 | citarinostat 0.018 | silmitasertib 0.012 | [5] -0.082 | [6] -0.021

MTREX (UniProt P42285)
inactive: [1] 0.086 | [2] -0.02 | [3] 0.03 | [4] -0.038 | entinostat -0.001 | vorinostat 0.007 | citarinostat 0.017 | silmitasertib -0.016 | [5] -0.052 | [6] -0.012

Further entries follow:

MYH9 (UniProt P35579)
inactive: [1] 0.031 | [2] 0.047 | [3] -0.069 | [4] 0.034 | entinostat -0.002 | vorinostat 0.065 | citarinostat 0.034 | silmitasertib -0.023 | [5] -0.008 | [6] 0.007

MTA1 (UniProt Q13330)
inactive: [1] -0.025 | [2] -0.06 | [3] -0.082 | [4] -0.026 | entinostat 0.041 | vorinostat 0.027 | citarinostat -0.037 | silmitasertib 0.046 | [5] 0.048 | [6] -0.036

MTR (UniProt Q99707)
inactive: [1] -0.015 | [2] -0.068 | [3] -0.087 | [4] -0.032 | entinostat 0.08 | vorinostat 0.076 | citarinostat -0.004 | silmitasertib 0.065 | [5] 0.099 | [6] -0.029

MRPS18A isoform 2 (UniProt Q9NVS2)
inactive: [1] -0.004 | [2] 0.031 | [3] 0.071 | [4] 0.074 | entinostat 0.013 | vorinostat -0.026 | citarinostat -0.028 | silmitasertib 0.01 | [5] 0.03 | [6] -0.083

MTHFD1L (UniProt Q6UB35)
inactive: [1] -0.008 | [2] -0.015 | [3] -0.057 | [4] -0.046 | entinostat -0.021 | vorinostat 0.01 | citarinostat 0.053 | silmitasertib -0.044 | [5] -0.085 | [6] -0.006

MRPS18C (UniProt Q9Y3D5)
inactive: [1] 0.05 | [2] -0.124 | [3] 0.024 | [4] 0.009 | entinostat -0.063 | vorinostat 0.108 | citarinostat -0.038 | silmitasertib -0.061 | [5] 0.013 | [6] -0.103

MYCBP2 (UniProt O75592)
inactive: [1] -0.31 | [2] 0.023 | [3] 0.194 | [4] -0.227 | entinostat -0.147 | vorinostat -0.069 | citarinostat -0.058 | silmitasertib 0.17 | [5] 0.124 | [6] 0.069

MTM1 (UniProt Q13496)
inactive: [1] -0.013 | [2] 0.084 | [3] -0.058 | [4] 0.032 | entinostat -0.007 | vorinostat 0.037 | citarinostat 0.02 | silmitasertib 0.049 | [5] 0.01 | [6] -0.023

MYD88 isoform 6 (UniProt Q99836)
inactive: [1] -0.085 | [2] 0 | [3] 0.492 | [4] -0.083 | entinostat 0.097 | vorinostat -0.001 | silmitasertib 0.194 | [5] 0.005

MYO1D (UniProt O94832)
inactive: [1] -0.029 | [2] -0.082 | [3] 0.052 | [4] -0.019 | entinostat -0.04 | vorinostat 0.049 | citarinostat -0.083 | silmitasertib 0.15 | [5] 0.107 | [6] -0.096

MT1G (UniProt P13640)
inactive: [1] -0.021 | [2] 0.14 | [3] 0.009 | [4] 0.109 | entinostat -0.049 | vorinostat 0.181 | citarinostat 0.025 | silmitasertib 0.058 | [6] 0.034

MRPL58 (UniProt Q14197)
inactive: [1] -0.045 | [2] 0.037 | [3] 0.059 | [4] 0.054 | entinostat 0.001 | vorinostat -0.013 | citarinostat -0.026 | silmitasertib 0.011 | [5] 0.017 | [6] -0.049

MSMO1 (UniProt Q15800)
inactive: [1] -0.015 | [2] -0.024 | [3] -0.037 | [4] -0.034 | entinostat -0.014 | vorinostat 0.112 | citarinostat -0.063 | silmitasertib 0.044 | [5] -0.064 | [6] 0.043

MRPS11 (UniProt P82912)
inactive: [1] -0.075 | [2] 0.028 | [3] -0.118 | [4] 0.209 | entinostat -0.055 | vorinostat -0.008 | citarinostat 0.02 | silmitasertib -0.037 | [5] -0.047 | [6] -0.021

MRPS18B (UniProt Q9Y676)
inactive: [1] 0.133 | [2] 0 | [3] 0.021 | [4] 0.105 | entinostat -0.047 | vorinostat 0.08 | citarinostat -0.03 | silmitasertib -0.061 | [5] -0.03 | [6] -0.026

MRPS2 (UniProt Q9Y399)
inactive: [1] 0.105 | [2] -0.079 | [3] -0.102 | [4] 0.062 | entinostat 0.034 | vorinostat 0.096 | citarinostat 0.001 | silmitasertib -0.103 | [5] -0.021 | [6] -0.01

MTERF4 (UniProt Q7Z6M4)
inactive: [1] -0.205 | [2] 0.081 | [3] -0.071 | entinostat -0.084 | silmitasertib -0.001 | [5] 0.215

MTCH2 (UniProt E9PIE4)
inactive: [1] 0.02 | [2] -0.018 | [3] -0.05 | [4] -0.019 | entinostat -0.066 | citarinostat 0.019 | silmitasertib 0.032 | [5] -0.012 | [6] -0.017
